Assay: physchem

**Q.** With COC(=O)C1=C(C)NC(C)=C(C(=O)OC)C1c1ccccc1[N+](=O)[O-] [nifedipine] as the compound, how does the logP read?
**A.** The logP was roughly 2.4.

From US8974823B2, “Solid compositions of low-solubility drugs and poloxamers” (Bend Research, Inc., priority 2003, dated 2015)
